According to PubChem BioAssay AID1347423 (Functional Genomics Laboratory (NCATS/FGL), 2020):
Out of some 52,000 sequences screened, about 210 (0.4%) were called active.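 How the source made its calls: active means gene whose silencing raises cell survival under the drug, median off-target-corrected z-score across its silencing RNAs 2 or more; inactive means the rest.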 The list shows a part of the results.

Assay: Resistance to Poly (ADP-Ribose) Polymerase inhibitor: Gene Identification via Genome-wide siRNA Screen
Details: mouse BRCA2 R2336H ES cells, olaparib, CellTiter-Glo viability; hits give high values
Procedure, shortened: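 Mouse BRCA2 R2336H ES cells were reverse-transfected with siRNA (20 nM final), treated at 48 h with 500 nM olaparib, and read by CellTiter-Glo after 72 h. Scores: MAD-based z per siRNA, median per gene, seed off-target correction.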

Row | Sequence | z-score
1 | GGAAUUAGACUUCUGCGUCTT against Adamts15 | inactive: -0.347
2 | GGAAAGUCCACUCUAGUCCTT against Dusp16 | inactive: -0.34
3 | GGACAAAUUCUACAUCAGCTT against Adam8 | inactive: 0.28
4 | GGUAUCAAGUAUGACCUAGTT against Lrrc8 | inactive: -0.0351
5 | GGUCCUUCUUGUGUAGUCATT against Plac1 | inactive: -0.761
6 | GGUCUCUCCCAUGUUAAUCTT against Lcn3 | inactive: 1.91
7 | GGUACUAUCACAUCAUUAATT against Olfr1106 | inactive: 0.877
8 | GCAUAUGGAGAGAAUCCCATT against Apg4b | inactive: 2.59
9 | GGUGUUUGAUGUGGUGAACTT against 4632422M10Rik | inactive: -1.38
10 | GCUCCUAAUGGAAAGAACGTT against 2610311B01Rik | inactive: 0.469
11 | GGGCAACUACGAGUCUCUCTT against Zfp398 | inactive: -0.15
12 | GGAUUUUUCUAAUCGCUUGTT against 6820429M01 | inactive: 0.351
13 | GCCAGAAGACUGUAUACCATT against Rp9h | inactive: 0.317
14 | GGGCUCCUUUUUUUUUUUUTT against Frat1 | inactive: -0.554
15 | GCCAUGUUCAAUAUUAGGATT against Rps3a | inactive: -3.04
16 | GGAAGUCAACAAUGCAUUCTT against Olfr1451 | inactive: -0.0173
17 | GCACCUCCUGGGAUUACAUTT against Crp | inactive: 0.63
18 | UGAGUUGUUUCCAGCUAAATT against Urp | inactive: 1.42
19 | GCCCUCCUGUGAGUUUCUCTT against 8430406I07Rik | inactive: 0.022
20 | GCACAGAUAUGAGAUCUGUTT against 2310058J06Rik | inactive: 1.68
21 | GCUGAACCUAUGAGGGAGATT against Bat4 | inactive: -0.735
22 | GGAUGGACCAUCAGCUUCATT against Olfr1152 | inactive: -1.51
23 | GGGAUGAUAGAACUUCUCATT against 1700048E23Rik | inactive: -2.22
24 | GCAUGAUUAGGUUUCAGCATT against 2310057M21Rik | inactive: 1.13
25 | GGAAGGAGAAGGGUAGCAATT against BC034054 | inactive: 0.0863
26 | GCCGGACAGGGAAACUUAATT against 4933402P03Rik | inactive: -1.06

Row | Sequence | z-score
27 | GCAUUCGUUCGGCACGUGUTT against Bcl2l14 | inactive: 2.18
28 | CCUAGCACUAGCCUCCUUATT against Tbx2 | inactive: 0.0769
29 | GGCUUUUGUUUCUUAUGUCTT against E430029F06 | inactive: -0.0477
30 | GGAAAUCGAGCAUGUCUUCTT against Stk32c | inactive: -1.98
31 | GCUGAUAAACCACUUGUGATT against Olfr1287 | inactive: 0.139
32 | CGGGUGAGUGGAAAAACCATT against Gm574 | inactive: 0.588
33 | GGAGAUGAUGCUCUUCCUGTT against Cflar | inactive: -0.436
34 | GGCCCUUGUAAGAGUCCUUTT against Olfr381 | inactive: 0.252
35 | AUGUGACUGGCUUUACAUUTT against 4933405I11Rik | inactive: -0.855
36 | GGAACUGUGAGACUUUUAGTT against Rabgap1 | inactive: 1.94
37 | CGUAGGUUCCUCUUACAUGTT against 4930562C03Rik | inactive: -0.867
38 | CCACUCCUGUUGAUAAAAATT against Pex7 | inactive: 0.307
39 | CCAGAUAAGCCUCAUCAAUTT against Scn5a | inactive: 1.65
40 | GGGAGAAUUACCAAGAUCUTT against Elac1 | inactive: 2.5
41 | GCCACUUGUUAAUAAAGUGTT against 9130011J15Rik | inactive: -0.513
42 | GGCCAUAUUUGUGACUGUGTT against Hao1 | inactive: 2.26
43 | GACAUACAAUCUCCUACAUTT against Olfr478 | inactive: -0.58
44 | GGAAAUCUACAUCAUGGCUTT against AI661311 | inactive: 0.949
45 | GGCUUUCAUGUGCCGUUUUTT against Gstm5 | inactive: 0.483
46 | GGAUGAUGCUUCUUGAAAATT against Sfrp4 | inactive: -0.175
47 | GGAAAUGACAGGAAAGAUUTT against Zfp35 | inactive: 0.364
48 | GGGAGCCAAAGUGAGAUUUTT against 4933429I20Rik | inactive: -0.144
49 | GGGACUGGUCGUUUAGGAUTT against Tmie | inactive: 1.75
50 | GCACUAAGUGGUCCAAUUATT against Gm1382 | inactive: 0.169
51 | GGCAGUUGUUAAAAUCUGCTT against 2210409M21Rik | inactive: -0.487
52 | GGCUAUAUCAAUGAAUUUGTT against Polr3b | inactive: 0.129

Row | Sequence | z-score
53 | GGGUAUAGAAUGAUUAUGGTT against BC025446 | inactive: 0.195
54 | GGUAAACACUACCCUAACATT against Cpeb3 | inactive: -0.00872
55 | GGCCUCCAAGAUUGUAGGUTT against Prtn3 | inactive: 1.44
56 | GGAGCACCAAGAAUUUUUUTT against Bcl2l10 | inactive: 1.29
57 | GGGAAAGAAUGGUGUGGAATT against Dlx4 | inactive: -1.16
58 | GGACUUCAAGGAUGCCUACTT against B3galt5 | inactive: -1.53
59 | GCUUCCUCGGUCAAAUAAATT against Cetn1 | inactive: -0.259
60 | GGCUGGAGAAGUAAUGAUATT against Sp100 | inactive: 0.289
61 | GUGUAUGUUCACCAAGCUCTT against Klk16 | inactive: -3.03
62 | GGGAAUGUGACUACUCCAUTT against Tln2 | inactive: 0.944
63 | GGCAAUGAAGGAAACCAAATT against Mpp1 | inactive: -1.7
64 | GGCAGCAAACCUUUGCUAUTT against 2700050P07Rik | inactive: 0.39
65 | GGGCAUCCGGCUUUCAGAATT against Chchd3 | inactive: -0.661
66 | GCCAAAGCUUAAAAAGAAGTT against Gemin5 | inactive: 0.42
67 | GGAUAUUAAAUUCUCAUCCTT against Pus1 | inactive: 1.14
68 | GGUUGUUCCUACAUGUCUUTT against Irf3 | inactive: -0.073
69 | CCAACAAGUUGCAUGCCUUTT against Mbl1 | inactive: 0.153
70 | GGACAGAUGAAGCUGCAUUTT against S100a4 | inactive: -0.776
71 | GGAGUCCUACGUCAAAGAATT against F630022B06Rik | inactive: 1.27
72 | GCGUGAACACCUGAGGAUUTT against Rchy1 | inactive: -0.252
73 | CCUAAUUACUACCACUACATT against Csnk | inactive: 1.02
74 | CCCUCAGAACCAUUGAGAATT against Max | inactive: -1.95
75 | GCGGUCCACUCCUGUUUGATT against Ypel1 | inactive: -0.36
76 | GGGUUCCUACGAAUUCUACTT against 9230105K17Rik | inactive: -0.307
77 | GGCACUCUCUCAGAAUUUGTT against Rtn4ip1 | inactive: 1.34
78 | GGCCCAUAGGUUUCAAAUATT against Ccl22 | inactive: -0.99

Row | Sequence | z-score
79 | CCGCUAAGUUGGUAGACUCTT against Grp | inactive: 0.182
80 | GCCAAAUUUUGGGAUGUAATT against 2810047L02Rik | inactive: -1.02
81 | GGCCCUGUGCACUAAAGUGTT against Bax | inactive: 0.388
82 | GCCUAAAUUCACAUGGCAGTT against 2510005D08Rik | inactive: 0.93
83 | CCAUUCCUACAGCAUGCGUTT against Slc27a1 | inactive: 0.369
84 | GGCCUGACUUUUUGUCUUATT against Klhl15 | inactive: -0.795
85 | GGACGAUGGACCCUAAAAGTT against 4931409K22Rik | inactive: 0.515
86 | GACCUUGAAGAAGCCAAUCTT against C330016H24Rik | inactive: -0.452
87 | GAGUUCCAGUUUAUCCCUUTT against Klra1 | inactive: 0.52
88 | GGGCAAAUGUUCUCAAAAATT against Dlst | inactive: 0.745
89 | GCAGUUAUCCGUAUUUAAATT against Ctnnbl1 | inactive: 0.634
90 | GCCAAAUGGGAAAUGGAAGTT against 4732497O03Rik | inactive: 1.54
91 | GGUUCACAGUCCAAGCUUCTT against Sytl3 | inactive: -0.547
92 | GCAUAUCGUUCAAGUUUACTT against Sorcs1 | inactive: 1.05
93 | GGGUAUUCUGUGUGUUACUTT against Hsd3b1 | inactive: 0.151
94 | GGGUGUUUACUAACUCUGGTT against Hdac3 | inactive: -1.68
95 | CCGUAAACGAAAUCAUAGUTT against Wdr20 | inactive: 0.401
96 | CGAUUUUCUACAGAAAUACTT against Smpd3 | inactive: 0.869
97 | GGGUUACUUAUUAUAUCGATT against Phr1 | inactive: 1.23
98 | CCAAAAAUUGUGGCUUUUGTT against Alas2 | inactive: -0.555
99 | CCGUAUUAUUGGAAGCGGCTT against 4933402O15Rik | inactive: 0.714
100 | GCAUAUCGUUUUAUGGAUGTT against Olfr1043 | inactive: 1.1
101 | CGGCAACCGGCACUAUAAATT against Pnoc | inactive: -0.00504
102 | GGAUGUCAAAGUCUUUAGUTT against Grb10 | inactive: 0.465
103 | GGAGAAGAUAGUCUGGGUCTT against Bcas3 | inactive: -0.231
104 | CCUCUCAGUGGUUGAAAUGTT against Wdr5 | inactive: -1.64
